# US20130096104A1, “IMIDAZOPYRIDINE COMPOUNDS, COMPOSITIONS AND METHODS OF USE” (GENENTECH, INC., priority 2010, published 2013)
# Some of these results come from one statement about several compounds together.
# Molecular target: T1, TYK2 kinase domain (Homo sapiens, UniProt P29597)
# T1 construct: The activity of the isolated JAK1, JAK2 or TYK2 kinase domain was measured
# T1 sequence (P29597 897-1176 limits assumed): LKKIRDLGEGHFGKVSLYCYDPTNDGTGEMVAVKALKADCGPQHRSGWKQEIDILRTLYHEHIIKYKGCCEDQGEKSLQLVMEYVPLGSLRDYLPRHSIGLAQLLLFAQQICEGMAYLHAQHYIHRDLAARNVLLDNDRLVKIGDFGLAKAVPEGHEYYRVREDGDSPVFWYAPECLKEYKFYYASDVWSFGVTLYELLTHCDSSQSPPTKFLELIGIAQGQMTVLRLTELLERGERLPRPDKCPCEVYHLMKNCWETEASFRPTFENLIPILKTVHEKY
# Assay: TYK2 inhibition assay (Example A, Caliper LabChip peptide phosphorylation)
# Type: biochemical
# Details: tested in the above assays; less than about
# Experimental: The activity of the isolated JAK1, JAK2 or TYK2 kinase domain was measured by monitoring phosphorylation of a peptide derived from JAK3 ([…] fluorescently labeled on the N-terminus with 5-carboxyfluorescein using the Caliper LabChip technology (Caliper Life Sciences, Hopkinton, Mass.). […] Reactions were incubated at 22° C. in 384-well polypropylene microtiter plates for 30 minutes and then stopped by addition of 25 uL of an EDTA containing solution (100 mM Hepes pH 7.2, 0.015% Brij-35, 150 mM EDTA), resulting in a final EDTA concentration of 50 mM. After termination of the kinase reaction, the proportion of phosphorylated product was determined as a fraction of total peptide substrate using the Caliper LabChip 3000 according to the manufacturer's specifications. Ki values were then determined using the Morrison tight binding model. Morrison, J. F., Biochim. Biophys. Acta. 185:269-296 (1969); William, J. W. and Morrison, J. F., Meth. Enzymol., 63:437-467 (1979).
row,Structure (SMILES),IC50
1,"CC(C)(C)C(=O)Nc1nccc2nc(-c3c(Cl)cccc3Cl)[nH]c12 [Example 29, N-(2-(2,6-dichlorophenyl)-3H-imidazo[4,5-c]pyridin-4-yl)pivalamide]",< 5 µM
2,"Clc1ccccc1-c1nc2ccnc(Nc3cn[nH]c3)c2[nH]1 [Example 103, 2-(2-chlorophenyl)-N-(1H-pyrazol-4-yl)-3H-imidazo[4,5-c]pyridin-4-amine]",< 5 µM
3,"Cc1cc(Nc2nccc3nc(-c4c(Cl)cccc4Cl)[nH]c23)no1 [Example 135, N-(2-(2,6-dichlorophenyl)-3H-imidazo[4,5-c]pyridin-4-yl)-5-methylisoxazol-3-amine]",< 5 µM
4,"Nc1cc(Nc2ncnc3[nH]c(-c4c(Cl)cccc4Cl)nc23)ncn1 [Example 216, N4-(8-(2,6-dichlorophenyl)-9H-purin-6-yl)pyrimidine-4,6-diamine]",< 5 µM
5,"O=C(Nc1nccc2nc(-c3c(Cl)cc(Cl)cc3Cl)[nH]c12)C1CC1 [Example 217, N-(2-(2,4,6-trichlorophenyl)-3H-imidazo[4,5-c]pyridin-4-yl)cyclopropane-carboxamide]",< 5 µM
6,"NCc1cc(Cl)c(-c2nc3ccnc(NC(=O)C4CC4)c3[nH]2)c(Cl)c1 [Example 218, N-(2-(4-(aminomethyl)-2,6-dichlorophenyl)-3H-imidazo[4,5-c]pyridin-4-yl)cyclopropane-carboxamide]",< 5 µM
7,"Cc1cc(Nc2nccc3nc(-c4c(Cl)cc(Cl)cc4Cl)[nH]c23)nc(C)n1 [Example 219, N-(2,6-dimethylpyrimidin-4-yl)-2-(2,4,6-trichlorophenyl)-3H-imidazo[4,5-c]pyridin-4-amine]",< 5 µM
8,"Cc1cc(Nc2nccc3nc(-c4c(Cl)cc(CN)cc4Cl)[nH]c23)nc(C)n1 [Example 220, 2-(4-(aminomethyl)-2,6-dichlorophenyl)-N-(2,6-dimethylpyrimidin-4-yl)-3H-imidazo[4,5-c]pyridin-4-amine]",< 5 µM
9,"O=C(CO)Nc1nccc2nc(-c3c(Cl)cccc3Cl)[nH]c12 [Example 221, N-(2-(2,6-dichlorophenyl)-3H-imidazo[4,5-c]pyridin-4-yl)-2-hydroxyacetamide]",< 5 µM
10,"CN(C)CC(=O)Nc1nccc2nc(-c3c(Cl)cccc3Cl)[nH]c12 [Example 222, N-(2-(2,6-dichlorophenyl)-3H-imidazo[4,5-c]pyridin-4-yl)-2-(dimethylamino)-acetamide]",< 5 µM
11,"O=C(Nc1nccc2nc(-c3c(Cl)cccc3Cl)[nH]c12)C1CCC1 [Example 223, N-(2-(2,6-dichlorophenyl)-3H-imidazo[4,5-c]pyridin-4-yl)cyclobutane-carboxamide]",< 5 µM
12,"Cc1cc(Nc2nccc3nc(-c4c(Cl)cc(CO)cc4Cl)[nH]c23)nc(C)n1 [Example 224, (3,5-dichloro-4-(4-(2,6-dimethylpyrimidin-4-ylamino)-3H-imidazo[4,5-c]pyridin-2-yl)phenyl)methanol]",< 5 µM
13,"COC(=O)Nc1nccc2nc(-c3c(F)cccc3Cl)[nH]c12 [Example 225, methyl 2-(2-chloro-6-fluorophenyl)-3H-imidazo[4,5-c]pyridin-4-ylcarbamate]",< 5 µM
14,"Clc1cccc(Br)c1-c1nc2ccnc(Nc3ccncn3)c2[nH]1 [Example 226, 2-(2-bromo-6-chlorophenyl)-N-(pyrimidin-4-yl)-3H-imidazo[4,5-c]pyridin-4-amine]",< 5 µM
15,"O=C(Nc1nccc2nc(-c3c(Cl)cccc3Br)[nH]c12)C1CC1 [Example 227, N-(2-(2-bromo-6-chlorophenyl)-3H-imidazo[4,5-c]pyridin-4-yl)cyclopropane-carboxamide]",< 5 µM
16,"Fc1cccc(Br)c1-c1nc2ccnc(Nc3ccncn3)c2[nH]1 [Example 228, 2-(2-bromo-6-fluorophenyl)-N-(pyrimidin-4-yl)-3H-imidazo[4,5-c]pyridin-4-amine]",< 5 µM
17,"O=C(Nc1nccc2nc(-c3c(F)cccc3Br)[nH]c12)C1CC1 [Example 229, N-(2-(2-bromo-6-fluorophenyl)-3H-imidazo[4,5-c]pyridin-4-yl)cyclopropane-carboxamide]",< 5 µM
